Reference: the supplement of paper PMC12889115
The list shows a part of the results. Values are raw readings; no control value is given beside them.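 In the initial screen, polymyxin B was used at a concentration that permeabilizes Salmonella's outer membrane but not its inner membrane. Maximum growth was set by DMSO wells with or without polymyxin B. Since plates varied, data were ranked per plate, and compounds giving the lowest OD600 advanced as hits.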

Test system: Salmonella enterica serovar Typhimurium SL1344
Test: bacterial growth OD600 after 18 h with compound and polymyxin B; higher = more bacterial growth (less inhibition)
Settings: 50 µM, Mueller-Hinton broth

Compound | bacterial growth OD600 (polymyxin B 0.75 µg/mL) | bacterial growth OD600 (polymyxin B 1 µg/mL)
O=C(Cc1ccc(N2CCC(NCCc3cccs3)CC2)cc1)NCc1ccccc1 | 0.808 | –
CCNC(=O)N(C)CC1CCCN(CCc2ccc(OC)cc2)C1 (stereo not given) | – | 1.08
CC1(C)Cc2nc(C(C)(C)C)ncc2C(NC(=O)CCN2CCCC2=O)C1 (stereo not given) | – | 1.01
CC(C)CCN1CCC(N2CCCC(C(=O)NC3CC3)C2)CC1 (stereo not given) | 0.84 | –
CN(C(=O)CCn1cnnn1)C1CCCN(CCc2ccccc2)C1 (stereo not given) | – | 1.17
CO[C@H]1[C@H](NC(=O)c2ccco2)c2ccccc2C12CCN(Cc1nc(C(C)C)cs1)CC2 | 0.791 | –
O=C(NCCCN1CCOCC1)c1cc(Cn2ccc3ccccc32)[nH]n1 | – | 0.941
CC(=O)N1CCC(n2c(CCc3ccccc3)nc3cccnc32)CC1 | 1.05 | –
COc1ccc(CNC(=O)C2CCN(c3nc(C)c4ccc(S(C)(=O)=O)cc4n3)CC2)cc1 | 0.855 | –
COc1ccc2cc(C(=O)C3CCCN(Cc4cn(C)nc4C)C3)ccc2c1 (stereo not given) | – | 0.908
COc1ccc(C(=O)C2CCCN(C(=O)c3ccc(OC(C)C)cc3)C2)cc1F (stereo not given) | – | 0.022
Cc1nc(N2CCC(C(=O)N(C)Cc3cccc4cnccc34)CC2)nc2ccc(C(C)C)cc12 | 0.004 | –
COc1cccc(C2c3[nH]c4ccccc4c3CCN2C(=O)c2nc(C)c[nH]2)c1 (stereo not given) | – | 0.001
CCOCCCNC(=O)C1CCCN(c2nc(C)c3ccc(S(C)(=O)=O)cc3n2)C1 (stereo not given) | 0.864 | –
Cc1cc(C)c(CNC2COc3ccccc3C2)c(-n2cccn2)c1 (stereo not given) | – | 0.789
Cc1cnc(SCCN2CCOCC2)nc1C1CCCN(C(=O)c2ccc3cc[nH]c3c2)C1 (stereo not given) | 0.764 | –
COc1ccc(CCCN2C(=O)O[C@@H]3CN(C4CCOCC4)C[C@@H]32)cc1 | – | 0.896
COc1ccc(CCN2CC(NC(=O)C3(C)CC3)CC2=O)cc1 (stereo not given) | – | 0.99
CC(=O)N1CCCN(C(=O)CC(c2cccc(O)c2)c2ccccc2O)CC1 (stereo not given) | – | 0.9
COc1ccc(-c2nn(-c3ccccc3)cc2CN2CCCCC2CO)c(F)c1 (stereo not given) | – | 0.935
COC(=O)c1cc(CNC(=O)C23CC4CC(CC(C4)C2)C3)cc(NC(=O)Cc2ccsc2)c1 | 0.022 | –
CCc1csc(CNC(=O)C2CCC(=O)N(Cc3cccc(OC)c3)C2)n1 (stereo not given) | – | 0.873
COCc1ccc(C(=O)NCc2c(C)ncc3c2CCN(C(=O)c2cccc(OC)c2OC)C3)o1 | 0.801 | –
O=C(NCc1cccnc1)C1CCN(C2CCN(CC3CC3)CC2)CC1 | – | 1.03
NC(=O)c1cccnc1N1CCC2(CCCN(CCC3CCCCC3)C2=O)C1 (stereo not given) | – | 1.14
C=C(C)CNC(=O)Cc1c2c(n(Cc3ccccc3)c1C)CCCC2=O | – | 1.14
Cc1csc(SCC(=O)N2CCCC(c3nc(SCc4cccnc4)ncc3C)C2)n1 (stereo not given) | 0.83 | –
COCc1ccc(CN2CCc3c(C(=O)NCc4ccccc4OC)c(OC)cc(=O)n3CC2)o1 | 0.822 | –
CC(C)S(=O)(=O)c1ncc(CN(C)Cc2cccnc2)n1CCc1ccccc1 | – | 0.657
O=C(Cn1cccn1)N1CCCC(N2CCN(Cc3ccc4c(c3)OCO4)CC2)C1 (stereo not given) | – | 1.08

Complete entries, looked up by structure. Order of values: bacterial growth OD600 (polymyxin B 0.75 µg/mL) | bacterial growth OD600 (polymyxin B 1 µg/mL)
`CCc1csc(CNC(=O)C2CCC(=O)N(Cc3cccc(OC)c3)C2)n1` (stereo not given) is listed with – | 0.873
`Cc1cnc(SCCN2CCOCC2)nc1C1CCCN(C(=O)c2ccc3cc[nH]c3c2)C1` (stereo not given) is listed with 0.764 | –
